Measured values: paper PMC3879536
No constants are given. Whether binding was seen depends on the method and setting. Binding seen in cells or lysates may run through a third protein. Binding calls can cover weak binding; strength is not graded here. Tags and fused reporters may be left off the sequences shown.

Target: T1, GFP-RCP (Rab coupling protein) (UniProt Q6WKZ4)
T1 sequence: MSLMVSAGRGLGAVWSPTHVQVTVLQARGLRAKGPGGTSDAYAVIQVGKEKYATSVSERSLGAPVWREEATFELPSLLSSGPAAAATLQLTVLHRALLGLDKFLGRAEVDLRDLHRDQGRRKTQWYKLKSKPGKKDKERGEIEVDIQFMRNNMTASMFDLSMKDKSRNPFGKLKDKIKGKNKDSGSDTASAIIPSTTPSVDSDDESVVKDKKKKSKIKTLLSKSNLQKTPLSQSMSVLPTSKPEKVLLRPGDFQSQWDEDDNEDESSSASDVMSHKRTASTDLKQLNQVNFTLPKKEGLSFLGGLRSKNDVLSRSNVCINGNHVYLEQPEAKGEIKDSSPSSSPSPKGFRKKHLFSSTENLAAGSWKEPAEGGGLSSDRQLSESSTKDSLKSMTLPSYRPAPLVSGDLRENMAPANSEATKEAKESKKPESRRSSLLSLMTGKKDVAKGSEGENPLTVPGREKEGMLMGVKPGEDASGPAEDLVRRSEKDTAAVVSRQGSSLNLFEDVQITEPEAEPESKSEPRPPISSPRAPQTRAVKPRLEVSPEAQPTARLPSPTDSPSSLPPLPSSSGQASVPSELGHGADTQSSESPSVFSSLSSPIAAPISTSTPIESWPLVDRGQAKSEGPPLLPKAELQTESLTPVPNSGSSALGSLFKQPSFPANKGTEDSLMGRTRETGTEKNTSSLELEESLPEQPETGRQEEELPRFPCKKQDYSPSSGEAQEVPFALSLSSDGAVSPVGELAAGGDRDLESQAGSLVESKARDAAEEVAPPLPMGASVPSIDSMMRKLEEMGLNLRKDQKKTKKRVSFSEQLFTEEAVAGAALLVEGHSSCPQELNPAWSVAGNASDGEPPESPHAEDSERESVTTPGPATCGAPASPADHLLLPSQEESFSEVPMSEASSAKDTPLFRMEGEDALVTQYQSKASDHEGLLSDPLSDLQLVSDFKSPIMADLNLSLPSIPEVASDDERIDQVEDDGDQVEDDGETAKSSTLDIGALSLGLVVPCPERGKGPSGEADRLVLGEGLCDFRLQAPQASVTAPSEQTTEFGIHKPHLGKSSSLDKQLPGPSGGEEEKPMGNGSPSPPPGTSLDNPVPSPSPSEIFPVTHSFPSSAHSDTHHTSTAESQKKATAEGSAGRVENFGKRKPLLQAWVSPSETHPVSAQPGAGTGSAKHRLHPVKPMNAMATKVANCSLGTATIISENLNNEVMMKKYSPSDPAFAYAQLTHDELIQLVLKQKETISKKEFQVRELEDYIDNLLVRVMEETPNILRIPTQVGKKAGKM
Assay: co-IP; H1299 empty vector or mutant p53 273H cells transfected with control or Dicer siRNA and GFP-RCP or a GFP control; lysed in IP lysis buffer (200 mM NaCl, 75 mM Tris-HCl pH 7, 0.15% Tween 20, EDTA, EGTA); GFP-RCP immunoprecipitated with a GFP antibody (Roche) and magnetic protein G beads; Western blot for α5 integrin, GFP, Rab11

Row | binding | Substance
1 | binds | Rab11 (human (endogenous in H1299))
2 | binds | α5 integrin (human (endogenous in H1299)) (receptor)
